PubChem BioAssay AID1259405 – NCATS | 2018
Here is one part, drawn at random, of about 50,000 reagents tested. Over the whole deposit, about 4,000 (8%) got an active call. 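Mouse siRNA library applied to hamster cells; one well for each siRNA.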 The numbers tell different reagents against one gene apart.

Purpose: 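Silenced genes that increase secreted GFP made by CHO cells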 (primary screen)
Cells: Chinese hamster CHO-K1 ovary cells with stable secreted eGFP expression
Knock-down reagent: single siRNA against mouse genes, 0.8 pmol siRNA per well (2 µl of 400 nM stock)
Time to read-out: 3 days
Measured: 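Percent of the per-plate non-targeting control median for intracellular GFP per well by laser scanning cytometry and for cell viability by ATP luminescence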
Direction: GFP, % of control: higher = more GFP per well, higher productivity; viability (ATP), % of control: higher = more viable cells (more ATP)
Call rule: 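Called active when intracellular GFP, relative to negative control, is at or above 120%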

Degs2 (GeneID 70059) #1
- GFP, % of control: 70.6
- viability (ATP), % of control: 74.4
- Outcome: inactive

Degs2 (GeneID 70059) #2
- GFP, % of control: 98.6
- viability (ATP), % of control: 62.1
- Outcome: inactive

Degs2 (GeneID 70059) #3
- GFP, % of control: 105
- viability (ATP), % of control: 105
- Outcome: inactive

Nfs1 (GeneID 18041) #1
- GFP, % of control: 96
- viability (ATP), % of control: 104
- Outcome: inactive

Nfs1 (GeneID 18041) #2
- GFP, % of control: 57.7
- viability (ATP), % of control: 71.1
- Outcome: inactive

Nfs1 (GeneID 18041) #3
- GFP, % of control: 49.1
- viability (ATP), % of control: 55.6
- Outcome: inactive

Adam1b (GeneID 280667) #1
- GFP, % of control: 48.7
- viability (ATP), % of control: 22.5
- Outcome: inactive

Adam1b (GeneID 280667) #2
- GFP, % of control: 83.3
- viability (ATP), % of control: 92.8
- Outcome: inactive

Adam1b (GeneID 280667) #3
- GFP, % of control: 81.6
- viability (ATP), % of control: 94.1
- Outcome: inactive

Elf4 (GeneID 56501) #1
- GFP, % of control: 38.4
- viability (ATP), % of control: 30.4
- Outcome: inactive

Elf4 (GeneID 56501) #2
- GFP, % of control: 73
- viability (ATP), % of control: 50.8
- Outcome: inactive

Elf4 (GeneID 56501) #3
- GFP, % of control: 59.7
- viability (ATP), % of control: 97.3
- Outcome: inactive

Tmem176b (GeneID 65963) #1
- GFP, % of control: 49.7
- viability (ATP), % of control: 78.3
- Outcome: inactive

Tmem176b (GeneID 65963) #2
- GFP, % of control: 58.9
- viability (ATP), % of control: 99.7
- Outcome: inactive

Tmem176b (GeneID 65963) #3
- GFP, % of control: 92.2
- viability (ATP), % of control: 65.9
- Outcome: inactive

Chrna7 (GeneID 11441) #1
- GFP, % of control: 79.8
- viability (ATP), % of control: 146
- Outcome: inactive

Chrna7 (GeneID 11441) #2
- GFP, % of control: 68
- viability (ATP), % of control: 63.4
- Outcome: inactive

Chrna7 (GeneID 11441) #3
- GFP, % of control: 66
- viability (ATP), % of control: 53.5
- Outcome: inactive
